In patent US20160138021:
For at least one entry, the source does not settle the construct or the ends of the probe. For some of these results: A negative result means that nothing was seen under these conditions. For some of these results: At least one result comes from cells or an extract, where the contact may be indirect.

By UniProt entry, the sequences of proteins in these tests, tags left out.
UniProt P01871, whole entry: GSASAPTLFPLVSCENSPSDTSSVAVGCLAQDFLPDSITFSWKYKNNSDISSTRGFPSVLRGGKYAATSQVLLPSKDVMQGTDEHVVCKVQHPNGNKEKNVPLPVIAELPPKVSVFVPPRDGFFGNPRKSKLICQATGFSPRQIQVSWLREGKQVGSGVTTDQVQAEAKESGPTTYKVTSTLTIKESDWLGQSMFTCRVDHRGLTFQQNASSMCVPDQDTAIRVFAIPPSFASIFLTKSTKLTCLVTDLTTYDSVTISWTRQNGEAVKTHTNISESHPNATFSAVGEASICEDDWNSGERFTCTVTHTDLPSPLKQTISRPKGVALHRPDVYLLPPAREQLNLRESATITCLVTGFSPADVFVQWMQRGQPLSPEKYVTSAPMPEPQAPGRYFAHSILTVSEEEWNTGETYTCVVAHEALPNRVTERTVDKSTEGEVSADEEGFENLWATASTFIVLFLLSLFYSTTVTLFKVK

Tests used:
[1] = system: soluble IgM (pentameric); test: competition with a labelled probe; settings: purified native protein, single-stranded DNA
[2] = biological target: membrane-bound IgM (mIgM, immunoglobulin heavy mu chain) on Ramos cells (Homo sapiens) (UniProt P01871); test: flow cytometry; settings: Bmax/2 (Kd') on Ramos cells, 37 C, 20 mM MgCl2, protein on the cell surface, label: 5' Cy3, single-stranded DNA, letters built from the parent sequence and the stated change, variant of TD05.17

Sequence: AGGAGGATAGTTCGGTGGCTGTTCAGGGTCTCCTCCT [TD05.1]
- binding result ([1]; excess soluble IgM or 20% human serum does not affect aptamer binding to Ramos cells, label: 5' fluorophore, variant of TD05): no binding

Sequence: AGGAGGATAGTTCGGTGGCTGTTCAGGGTCTCCTCCTAGGAGGATAGTTCGGTGGCTGTTCAGGGTCTCCTCCTAGGAGGATAGTTCGGTGGCTGTTCAGGGTCTCCTCCT [L-TVA.8S]
- Kd ([2]; three LNA-modified TD05.17 joined by (PEG spacer 18)8, sp18 at 5' and 3' ends [LNA at 34,35,36,37,71,72,73,74,108,109,110,111, 5' label-sp18, (PEG spacer 18)8 between 37/38 and 74/75 and 3' sp18 left out, A75 taken from parent TD05.17 (missing in printed string)]): 256 nM

Sequence: AGGAGGATAGTTCGGTGGCTGTTCAGGGTCTCCTCCTAGGAGGATAGTTCGGTGGCTGTTCAGGGTCTCCTCCTAGGAGGATAGTTCGGTGGCTGTTCAGGGTCTCCTCCTAGGAGGATAGTTCGGTGGCTGTTCAGGGTCTCCTCCT [L-TetVA.8S]
- Kd ([2]; four LNA-modified TD05.17 joined by (PEG spacer 18)8, sp18 at 5' and 3' ends [LNA at 34,35,36,37,71,72,73,74,108,109,110,111,145,146,147,148, 5' label-sp18, (PEG spacer 18)8 between 37/38, 74/75 and 111/112 and 3' sp18 left out, A75 and A112 taken from parent TD05.17 (missing in printed string)]): 272 nM

Sequence: AGGAGGATAGTTCGGTGGCTGTTCAGGGTCTCCTCCTAGGAGGATAGTTCGGTGGCTGTTCAGGGTCTCCTCCTAGGAGGATAGTTCGGTGGCTGTTCAGGGTCTCCTCCTAGGAGGATAGTTCGGTGGCTGTTCAGGGTCTCCTCCT [TetVA.8S]
- binding result ([1]; four TD05.1 joined by (PEG spacer 18)8 [(PEG spacer 18)8 linkers between 37/38, 74/75 and 111/112 left out], excess soluble IgM does not affect binding to Ramos cells, decrease seen in 50% human serum, label: 5' FITC, letters built from the parent sequence and the stated change, variant of TD05.1): no binding
